This is one part of the list.
Key:
Assay in all cases: log2 fold change, soluble protein after heating vs DMSO (PISA); higher = thermal stabilisation; K562 lysate, 10 uM; active = over 0.2 and 3.5 SD of the protein, either way, in both replicates (recomputed)
ibrutinib = compound: C=CC(=O)N1CCC[C@@H](n2nc(-c3ccc(Oc4ccccc4)cc3)c3c(N)ncnc32)C1 [ibrutinib]
How it was run: (§1)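 Thermal stability, expressed as log-two fold change relative to solvent controls, is given from duplicates. Crude K562 extract in PBS pH 7.4 with 1 mM MgCl2, at 1 mg/mL protein, was treated with 10 μM compound for 30 min and heated in aliquots for 3 min across 48°C-58°C. After pooling, adjustment to 0.5% NP-40 at 4°C and centrifugation at 21,000xg for 90 min, supernatant protein was measured by TMTpro 16plex LC-MS/MS with channel sums equalised.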

The chains behind the UniProt entries cited, without tags or fusion partners. Where a name states a change or a piece, a line headed by the entry shows the natural chain unless it says otherwise.
UniProt Q8N1A6: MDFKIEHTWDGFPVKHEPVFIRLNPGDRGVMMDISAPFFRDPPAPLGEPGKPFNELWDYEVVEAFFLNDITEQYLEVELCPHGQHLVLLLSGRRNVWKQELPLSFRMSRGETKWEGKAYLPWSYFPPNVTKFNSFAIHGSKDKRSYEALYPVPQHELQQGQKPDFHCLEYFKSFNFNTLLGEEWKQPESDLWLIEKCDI
UniProt Q6P1S2: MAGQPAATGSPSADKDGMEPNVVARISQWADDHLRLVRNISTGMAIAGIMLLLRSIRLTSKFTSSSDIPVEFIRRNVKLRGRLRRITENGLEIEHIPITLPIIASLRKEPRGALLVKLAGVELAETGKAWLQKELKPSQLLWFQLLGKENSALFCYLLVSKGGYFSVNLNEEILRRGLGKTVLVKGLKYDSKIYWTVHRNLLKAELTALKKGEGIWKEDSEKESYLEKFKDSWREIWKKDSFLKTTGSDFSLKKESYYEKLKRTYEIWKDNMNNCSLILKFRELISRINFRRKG
UniProt P22676: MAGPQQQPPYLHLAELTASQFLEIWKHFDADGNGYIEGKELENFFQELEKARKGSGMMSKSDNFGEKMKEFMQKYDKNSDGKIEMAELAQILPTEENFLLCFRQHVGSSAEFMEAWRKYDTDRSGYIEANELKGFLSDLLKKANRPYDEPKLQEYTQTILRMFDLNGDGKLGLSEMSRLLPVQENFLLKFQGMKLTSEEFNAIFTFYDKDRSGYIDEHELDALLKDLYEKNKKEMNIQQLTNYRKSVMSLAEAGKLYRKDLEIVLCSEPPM
UniProt Q8IYL3: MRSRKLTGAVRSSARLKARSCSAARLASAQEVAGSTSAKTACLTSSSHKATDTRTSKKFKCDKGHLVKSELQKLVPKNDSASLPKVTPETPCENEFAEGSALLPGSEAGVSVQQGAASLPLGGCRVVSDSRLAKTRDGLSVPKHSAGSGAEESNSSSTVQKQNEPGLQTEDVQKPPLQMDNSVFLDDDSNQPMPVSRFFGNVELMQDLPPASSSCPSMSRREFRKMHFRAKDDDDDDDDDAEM
UniProt Q6P5X5: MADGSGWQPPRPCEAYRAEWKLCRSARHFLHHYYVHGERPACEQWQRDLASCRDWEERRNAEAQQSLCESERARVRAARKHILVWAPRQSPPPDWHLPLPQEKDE
UniProt Q9NS00: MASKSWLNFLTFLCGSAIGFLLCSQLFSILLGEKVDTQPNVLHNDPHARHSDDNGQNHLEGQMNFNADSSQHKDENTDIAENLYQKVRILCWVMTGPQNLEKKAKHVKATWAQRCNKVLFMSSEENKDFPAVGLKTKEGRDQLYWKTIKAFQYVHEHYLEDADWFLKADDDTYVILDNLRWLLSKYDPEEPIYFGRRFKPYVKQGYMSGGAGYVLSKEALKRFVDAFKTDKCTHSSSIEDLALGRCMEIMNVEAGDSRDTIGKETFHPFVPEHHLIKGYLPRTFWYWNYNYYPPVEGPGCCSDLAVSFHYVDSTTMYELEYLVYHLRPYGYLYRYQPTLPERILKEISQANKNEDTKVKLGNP
UniProt Q9BRD0: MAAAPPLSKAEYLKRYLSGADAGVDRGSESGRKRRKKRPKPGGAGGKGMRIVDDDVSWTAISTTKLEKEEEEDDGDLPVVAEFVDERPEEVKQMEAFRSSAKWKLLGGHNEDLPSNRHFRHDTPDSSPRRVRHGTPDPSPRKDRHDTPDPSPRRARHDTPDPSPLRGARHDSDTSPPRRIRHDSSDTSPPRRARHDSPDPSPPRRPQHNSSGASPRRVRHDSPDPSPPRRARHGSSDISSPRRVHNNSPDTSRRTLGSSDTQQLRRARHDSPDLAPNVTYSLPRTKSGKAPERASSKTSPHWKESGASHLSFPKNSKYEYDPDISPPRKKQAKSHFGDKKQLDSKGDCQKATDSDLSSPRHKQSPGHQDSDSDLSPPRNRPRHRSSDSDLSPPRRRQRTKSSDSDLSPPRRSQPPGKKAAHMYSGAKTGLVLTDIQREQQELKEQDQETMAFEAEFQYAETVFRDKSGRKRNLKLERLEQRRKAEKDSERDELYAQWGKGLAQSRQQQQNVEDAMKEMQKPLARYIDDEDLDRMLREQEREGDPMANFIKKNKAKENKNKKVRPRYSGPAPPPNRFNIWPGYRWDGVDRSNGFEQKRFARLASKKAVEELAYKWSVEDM
UniProt O00478: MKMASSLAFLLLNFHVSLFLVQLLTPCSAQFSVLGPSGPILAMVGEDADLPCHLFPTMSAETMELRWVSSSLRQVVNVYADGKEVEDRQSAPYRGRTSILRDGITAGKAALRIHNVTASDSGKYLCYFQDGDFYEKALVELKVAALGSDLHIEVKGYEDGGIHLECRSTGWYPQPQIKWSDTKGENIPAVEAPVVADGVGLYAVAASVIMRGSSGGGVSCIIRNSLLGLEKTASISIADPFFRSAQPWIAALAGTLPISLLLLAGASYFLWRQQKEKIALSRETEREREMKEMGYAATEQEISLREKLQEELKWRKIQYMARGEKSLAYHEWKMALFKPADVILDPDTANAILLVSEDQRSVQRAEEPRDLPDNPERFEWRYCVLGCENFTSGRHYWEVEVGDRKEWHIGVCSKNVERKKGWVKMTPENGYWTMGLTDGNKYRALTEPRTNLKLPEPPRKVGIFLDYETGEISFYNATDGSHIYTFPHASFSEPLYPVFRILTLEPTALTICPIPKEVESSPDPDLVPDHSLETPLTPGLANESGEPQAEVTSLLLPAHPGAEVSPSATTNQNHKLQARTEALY
UniProt Q9BSU1: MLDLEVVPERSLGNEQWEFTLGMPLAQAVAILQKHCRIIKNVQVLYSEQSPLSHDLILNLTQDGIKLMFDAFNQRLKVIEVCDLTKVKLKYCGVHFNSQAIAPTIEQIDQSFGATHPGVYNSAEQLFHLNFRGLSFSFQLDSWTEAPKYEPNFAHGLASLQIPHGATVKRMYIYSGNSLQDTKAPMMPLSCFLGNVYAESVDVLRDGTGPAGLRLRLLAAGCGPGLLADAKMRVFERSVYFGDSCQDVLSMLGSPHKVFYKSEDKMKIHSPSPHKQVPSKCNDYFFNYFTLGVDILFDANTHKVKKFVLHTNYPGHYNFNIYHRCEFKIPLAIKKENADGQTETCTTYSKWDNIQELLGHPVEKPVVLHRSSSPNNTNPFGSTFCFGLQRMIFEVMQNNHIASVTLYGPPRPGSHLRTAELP
UniProt Q86Y37: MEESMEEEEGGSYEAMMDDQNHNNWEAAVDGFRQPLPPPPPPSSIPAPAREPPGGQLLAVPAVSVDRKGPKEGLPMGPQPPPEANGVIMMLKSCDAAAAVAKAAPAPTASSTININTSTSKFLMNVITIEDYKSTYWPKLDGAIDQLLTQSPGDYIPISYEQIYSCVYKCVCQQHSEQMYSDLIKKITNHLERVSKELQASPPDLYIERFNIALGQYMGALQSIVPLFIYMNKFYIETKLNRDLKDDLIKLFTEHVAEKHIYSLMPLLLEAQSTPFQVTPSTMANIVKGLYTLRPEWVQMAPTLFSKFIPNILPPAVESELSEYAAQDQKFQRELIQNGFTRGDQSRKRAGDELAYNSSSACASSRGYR
UniProt Q96MD7: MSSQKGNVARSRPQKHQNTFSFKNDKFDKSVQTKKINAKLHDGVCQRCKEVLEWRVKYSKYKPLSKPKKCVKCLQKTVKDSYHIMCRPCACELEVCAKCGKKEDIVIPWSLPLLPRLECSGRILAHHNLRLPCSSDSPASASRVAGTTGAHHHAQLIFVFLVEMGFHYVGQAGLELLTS
UniProt Q6ZRI6: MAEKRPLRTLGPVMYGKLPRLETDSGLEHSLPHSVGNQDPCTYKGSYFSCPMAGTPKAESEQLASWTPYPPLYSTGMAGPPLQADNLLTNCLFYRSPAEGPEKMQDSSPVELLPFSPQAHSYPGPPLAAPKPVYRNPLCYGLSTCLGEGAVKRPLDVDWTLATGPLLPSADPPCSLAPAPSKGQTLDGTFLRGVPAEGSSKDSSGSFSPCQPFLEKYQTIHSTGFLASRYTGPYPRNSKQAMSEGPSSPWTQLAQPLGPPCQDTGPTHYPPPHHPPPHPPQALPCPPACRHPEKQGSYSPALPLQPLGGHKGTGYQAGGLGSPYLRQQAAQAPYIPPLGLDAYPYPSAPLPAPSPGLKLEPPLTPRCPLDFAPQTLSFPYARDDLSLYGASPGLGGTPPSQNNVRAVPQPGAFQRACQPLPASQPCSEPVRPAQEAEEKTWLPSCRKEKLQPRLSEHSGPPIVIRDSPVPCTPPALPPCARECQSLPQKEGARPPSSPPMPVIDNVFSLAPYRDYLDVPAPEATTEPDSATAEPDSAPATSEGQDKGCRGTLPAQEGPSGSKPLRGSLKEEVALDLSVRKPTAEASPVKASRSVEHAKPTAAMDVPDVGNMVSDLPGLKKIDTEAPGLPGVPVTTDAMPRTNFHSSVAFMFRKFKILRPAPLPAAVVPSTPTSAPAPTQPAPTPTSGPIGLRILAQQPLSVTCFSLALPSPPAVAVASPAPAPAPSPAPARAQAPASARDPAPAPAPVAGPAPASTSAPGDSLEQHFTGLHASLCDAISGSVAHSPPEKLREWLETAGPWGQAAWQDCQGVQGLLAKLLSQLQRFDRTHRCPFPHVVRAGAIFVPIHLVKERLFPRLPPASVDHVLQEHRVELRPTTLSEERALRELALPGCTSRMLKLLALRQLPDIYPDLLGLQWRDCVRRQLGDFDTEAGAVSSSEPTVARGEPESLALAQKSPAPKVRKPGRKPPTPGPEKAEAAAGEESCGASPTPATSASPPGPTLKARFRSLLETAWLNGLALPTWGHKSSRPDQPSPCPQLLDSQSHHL
UniProt Q01518, whole entry, looked up: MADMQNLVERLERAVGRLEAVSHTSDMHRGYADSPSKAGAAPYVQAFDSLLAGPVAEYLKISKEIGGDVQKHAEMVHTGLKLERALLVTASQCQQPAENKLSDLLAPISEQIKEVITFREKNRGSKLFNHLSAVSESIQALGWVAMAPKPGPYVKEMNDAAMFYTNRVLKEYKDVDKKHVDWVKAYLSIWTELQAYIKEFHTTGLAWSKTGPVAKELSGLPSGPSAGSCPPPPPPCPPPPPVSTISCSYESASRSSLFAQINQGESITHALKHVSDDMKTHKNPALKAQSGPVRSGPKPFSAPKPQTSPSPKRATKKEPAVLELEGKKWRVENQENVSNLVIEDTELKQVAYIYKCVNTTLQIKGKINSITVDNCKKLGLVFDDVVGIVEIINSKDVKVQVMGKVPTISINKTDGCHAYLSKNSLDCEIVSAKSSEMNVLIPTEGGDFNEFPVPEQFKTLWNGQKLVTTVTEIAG
UniProt Q9BTV7: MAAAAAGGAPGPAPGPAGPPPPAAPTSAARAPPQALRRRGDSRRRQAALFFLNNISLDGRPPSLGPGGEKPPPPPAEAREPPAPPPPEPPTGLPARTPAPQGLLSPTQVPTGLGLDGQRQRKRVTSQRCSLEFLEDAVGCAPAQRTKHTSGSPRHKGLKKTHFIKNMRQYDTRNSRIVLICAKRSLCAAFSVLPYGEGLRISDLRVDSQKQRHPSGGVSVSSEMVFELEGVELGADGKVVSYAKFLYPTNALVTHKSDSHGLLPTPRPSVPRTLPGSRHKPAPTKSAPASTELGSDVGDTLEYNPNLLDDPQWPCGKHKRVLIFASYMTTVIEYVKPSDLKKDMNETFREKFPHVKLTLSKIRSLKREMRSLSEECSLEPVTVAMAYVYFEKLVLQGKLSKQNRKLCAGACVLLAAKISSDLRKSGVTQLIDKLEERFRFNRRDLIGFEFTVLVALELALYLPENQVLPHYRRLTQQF
UniProt Q9NSK7: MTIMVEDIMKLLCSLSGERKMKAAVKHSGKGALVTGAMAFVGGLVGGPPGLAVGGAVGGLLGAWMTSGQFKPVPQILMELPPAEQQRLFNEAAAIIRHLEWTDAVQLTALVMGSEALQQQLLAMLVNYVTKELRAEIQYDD
UniProt Q9NX04: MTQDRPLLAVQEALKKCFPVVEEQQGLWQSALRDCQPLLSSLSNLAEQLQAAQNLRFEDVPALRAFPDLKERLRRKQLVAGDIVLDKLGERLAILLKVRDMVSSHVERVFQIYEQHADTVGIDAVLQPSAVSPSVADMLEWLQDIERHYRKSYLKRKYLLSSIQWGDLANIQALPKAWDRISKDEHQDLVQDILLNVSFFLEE
UniProt Q16581: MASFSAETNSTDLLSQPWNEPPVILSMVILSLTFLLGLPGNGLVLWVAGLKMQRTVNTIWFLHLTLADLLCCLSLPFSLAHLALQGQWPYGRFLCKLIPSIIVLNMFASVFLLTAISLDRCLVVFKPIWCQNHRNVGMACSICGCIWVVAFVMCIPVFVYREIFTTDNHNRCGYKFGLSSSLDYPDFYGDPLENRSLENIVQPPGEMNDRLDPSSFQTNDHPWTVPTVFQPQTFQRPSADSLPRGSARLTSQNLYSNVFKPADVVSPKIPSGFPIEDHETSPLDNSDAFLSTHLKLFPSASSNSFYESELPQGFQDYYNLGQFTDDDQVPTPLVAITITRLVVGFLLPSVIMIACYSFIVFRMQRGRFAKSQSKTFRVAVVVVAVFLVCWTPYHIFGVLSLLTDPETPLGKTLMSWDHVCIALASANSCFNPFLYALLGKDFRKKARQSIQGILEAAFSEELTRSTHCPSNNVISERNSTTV

[1] = compound: CC(=O)c1cnc2ccc(-c3cc(Cl)c(O)c(Cl)c3)nc2c1N[C@H]1CC[C@H](CN(C)C)CC1
How it was run: as §1

ralimetinib = compound: CC(C)(C)Cn1c(N)nc2ccc(-c3[nH]c(C(C)(C)C)nc3-c3ccc(F)cc3)nc21 [ralimetinib]
How it was run: as §1

[2] = compound: CC(C)(O)CC(=O)NCCn1ccc2ncnc(Nc3ccc(Oc4cccc(C(F)(F)F)c4)c(Cl)c3)c21
How it was run: as §1

[3] = compound: CC(C)C1=C2N=C(C=C(N2N=C1)NCC3=CC=CC=C3)NCCCCCCN
How it was run: as §1

[4] = compound: CC1=C(C(CC(=O)N1)C2=CC=C(C=C2)C(F)(F)F)C(=O)NC3=C(C=C4C(=C3)C=NN4)F
How it was run: as §1

[5] = compound: CC1=C(C2=C(C=C1)C(=O)C3=CC=CC=C3N2CCCN)C
How it was run: as §1

[6] = compound: CC1=C(C=C(C=C1)NC(=O)C2=CC(=CC=C2)C(C)(C)C#N)NC3=CC4=C(C=C3)N=CN(C4=O)C
How it was run: as §1

[7] = compound: CC1=C(C=C(C=C1)NC(=O)C2=CC(=CC=C2)N(C)C)NC(=O)C3=CC=C(C=C3)O
How it was run: as §1

[8] = compound: CC1=CC=C(C=C1)SC2=C3C=C(SC3=CN=C2)C(=O)N
How it was run: as §1

vemurafenib = compound: CCCS(=O)(=O)Nc1ccc(F)c(C(=O)c2c[nH]c3ncc(-c4ccc(Cl)cc4)cc23)c1F [vemurafenib]
How it was run: as §1

[9] = compound: CCCS(=O)(=O)Nc1ccc(F)c(C(=O)c2c[nH]c3ncc(Cl)cc23)c1F
How it was run: as §1

barasertib = compound: CCN(CCCOc1ccc2c(Nc3cc(CC(=O)Nc4cccc(F)c4)[nH]n3)ncnc2c1)CCOP(=O)(O)O [barasertib]
How it was run: as §1

[10] = compound: CC[C@@H]1C(=O)N(C)c2cnc(Nc3ccc(C(=O)NC4CCN(C)CC4)cc3OC)nc2N1C1CCCC1
How it was run: as §1

volasertib = compound: CC[C@@H]1C(=O)N(C)c2cnc(Nc3ccc(C(=O)N[C@H]4CC[C@H](N5CCN(CC6CC6)CC5)CC4)cc3OC)nc2N1C(C)C [volasertib]
How it was run: as §1

[11] = compound: CCn1c(C(=O)N(C2CC2)C2CC2)cc2c3c(ncn3C)c(Nc3cc(C)n(C)n3)nc21
How it was run: as §1

[12] = compound: CCn1cc(-c2ccnc3[nH]c(-c4cccc(CN(C)C)c4)cc23)c(-c2ccc(NC(=O)N(C)C)cc2)n1
How it was run: as §1

[13] = compound: CN1CCC(CNc2ccc3ncc(-c4cccc(OC(F)(F)F)c4)n3n2)CC1
How it was run: as §1

saracatinib = compound: CN1CCN(CCOc2cc(OC3CCOCC3)c3c(Nc4c(Cl)ccc5c4OCO5)ncnc3c2)CC1 [saracatinib]
How it was run: as §1

sotrastaurin = compound: CN1CCN(c2nc(C3=C(c4c[nH]c5ccccc45)C(=O)NC3=O)c3ccccc3n2)CC1 [sotrastaurin]
How it was run: as §1

Measured: log2 fold change

C4orf33 (UniProt Q8N1A6)
inactive: ibrutinib 0.002 | [1] -0.015 | ralimetinib -0.02 | [2] -0.012 | [3] 0.036 | [4] -0.034 | [5] 0.008 | [6] 0.066 | [7] 0.017 | [8] 0.011 | vemurafenib -0.014 | [9] -0.045 | barasertib 0.009 | [10] -0.018 | volasertib 0.013 | [11] -0.046 | [12] -0.112 | [13] 0.091 | saracatinib -0.014 | sotrastaurin 0.038

CAND1 (UniProt F5H6I6)
inactive: ibrutinib 0.009 | [1] -0.088 | ralimetinib -0.09 | [2] -0.147 | [3] 0.056 | [4] -0.041 | [5] 0.05 | [6] 0.06 | [7] 0.056 | [8] -0.021 | [9] 0.053 | barasertib 0.246 | [10] 0.406 | volasertib 0.01 | [11] -0.12 | saracatinib -0.028 | sotrastaurin -0.028

C3orf33 (UniProt Q6P1S2)
active: [12] -0.823
inactive: ibrutinib -0.045 | [1] -0.084 | ralimetinib 0.17 | [2] 0.012 | [3] -0.001 | [4] 0.046 | [5] -0.031 | [6] 0.117 | [7] -0.205 | [8] 0.008 | vemurafenib 0.295 | [9] -0.043 | barasertib -0.04 | volasertib 0.063 | [11] -0.056 | [13] 0.216 | saracatinib 0.045 | sotrastaurin 0.047

CALB2 (UniProt P22676)
inactive: ibrutinib 0.085 | [1] 0.016 | ralimetinib 0 | [2] -0.083 | [3] -0.093 | [4] -0.025 | [5] -0.116 | [6] 0.028 | [7] -0.039 | [8] -0.014 | vemurafenib 0.064 | [9] 0.046 | [10] -0.036 | volasertib 0.017 | [11] 0.023 | [12] -0.065 | [13] 0.066 | saracatinib -0.008 | sotrastaurin -0.061
active: barasertib 0.375

C12orf73 (UniProt Q69YU5)
inactive: ibrutinib 0.06 | [1] -0.121 | ralimetinib 0.051 | [2] -0.071 | [3] -0.064 | [4] -0.024 | [5] 0.001 | [6] 0.09 | [7] 0.038 | [8] 0.007 | [9] 0.012 | barasertib 0.056 | volasertib -0.011 | [11] -0.136 | [12] 0.003 | [13] -0.061 | saracatinib -0.082 | sotrastaurin -0.079

C1orf174 (UniProt Q8IYL3)
inactive: ibrutinib -0.02 | [1] -0.117 | ralimetinib -0.151 | [2] 0.066 | [5] 0.036 | [6] 0.019 | [7] 0.054 | [8] -0.117 | vemurafenib 0.054 | [9] 0.04 | barasertib 0.03 | volasertib 0.037 | [11] -0.069 | [12] -0.048 | [13] 0.122 | saracatinib -0.075 | sotrastaurin 0.017

C22orf39 (UniProt Q6P5X5)
inactive: ibrutinib 0.035 | [1] 0.075 | ralimetinib 0.039 | [2] -0.007 | [4] -0.052 | [5] -0.053 | [7] -0.062 | [8] 0.044 | vemurafenib 0.13 | [9] -0.062 | barasertib 0.133 | [10] 0.076 | volasertib -0.253 | [11] 0.066 | [12] -0.074 | [13] 0.09 | saracatinib -0.06

C1GALT1 (UniProt Q9NS00)
inactive: [1] 0.101 | ralimetinib -0.072 | [2] 0.032 | [3] 0.148 | [5] 0.024 | [6] 0 | [7] 0.041 | [8] -0.085 | vemurafenib 0 | [9] -0.027 | volasertib -0.125 | [11] -0.055 | [12] 0.087 | [13] -0.023 | saracatinib -0.039 | sotrastaurin 0.006

BUD13 (UniProt Q9BRD0)
inactive: ibrutinib 0.07 | ralimetinib 0.033 | [2] 0.034 | [3] -0.051 | [4] -0.051 | [5] -0.219 | [6] 0.013 | [7] -0.013 | barasertib 0.092 | [10] -0.07 | [11] -0.037 | [12] 0.076 | [13] -0.064 | saracatinib 0.096 | sotrastaurin 0.025

BTN3A3 (UniProt O00478)
inactive: ibrutinib -0.057 | ralimetinib 0.103 | [2] 0.029 | [3] 0.178 | [4] 0.06 | [5] 0.072 | [6] -0.338 | [7] 0.119 | vemurafenib -0.006 | barasertib 0.095 | [11] 0.05 | [12] -0.038 | [13] 0.028 | saracatinib -0.086 | sotrastaurin -0.033

C16orf70 (UniProt Q9BSU1)
inactive: ibrutinib -0.048 | [1] -0.011 | ralimetinib 0.034 | [2] 0.031 | [3] -0.068 | [5] -0.043 | [6] 0 | [7] 0.058 | [8] -0.024 | vemurafenib 0.053 | [9] 0.086 | barasertib -0.016 | [10] 0 | volasertib -0.038 | [11] 0.018 | saracatinib -0.037 | sotrastaurin 0.031

Reprinted from above (two entries):
BTN3A3 (UniProt O00478)
inactive: ibrutinib -0.057 | ralimetinib 0.103 | [2] 0.029 | [3] 0.178 | [4] 0.06 | [5] 0.072 | [6] -0.338 | [7] 0.119 | vemurafenib -0.006 | barasertib 0.095 | [11] 0.05 | [12] -0.038 | [13] 0.028 | saracatinib -0.086 | sotrastaurin -0.033

C16orf70 (UniProt Q9BSU1)
inactive: ibrutinib -0.048 | [1] -0.011 | ralimetinib 0.034 | [2] 0.031 | [3] -0.068 | [5] -0.043 | [6] 0 | [7] 0.058 | [8] -0.024 | vemurafenib 0.053 | [9] 0.086 | barasertib -0.016 | [10] 0 | volasertib -0.038 | [11] 0.018 | saracatinib -0.037 | sotrastaurin 0.031

The list goes on.

CACUL1 (UniProt Q86Y37)
inactive: [1] 0.164 | ralimetinib -0.023 | [2] 0.073 | [3] 0.027 | [5] -0.165 | [6] -0.126 | [7] 0.115 | [8] -0.09 | vemurafenib 0.04 | [9] 0.053 | [10] -0.04 | volasertib 0.106 | [11] -0.072 | [12] 0.012 | [13] -0.111 | saracatinib -0.026 | sotrastaurin 0.103

C9orf85 isoform 1 (UniProt Q96MD7)
inactive: ibrutinib 0.065 | ralimetinib 0.023 | [2] -0.051 | [4] 0 | [5] -0.046 | [7] 0.023 | barasertib 0.058 | [11] -0.118 | [12] -0.089 | [13] 0.043 | saracatinib 0.04

C15orf39 (UniProt Q6ZRI6)
inactive: ibrutinib -0.141 | ralimetinib -0.005 | [2] -0.029 | [3] -0.06 | [4] 0.104 | [5] 0.039 | [6] -0.03 | [7] 0.019 | barasertib -0.012 | [10] -0.047 | [11] -0.008 | [12] 0.08 | [13] 0.132 | saracatinib 0.025 | sotrastaurin 0.042

CAP1 isoform 2 (UniProt Q01518)
inactive: ibrutinib -0.005 | ralimetinib -0.051 | [2] -0.16 | [3] 0.049 | [5] -0.062 | [6] -0.122 | [7] -0.103 | barasertib -0.16 | [11] -0.308 | [12] -0.077 | [13] -0.041 | saracatinib 0.122 | sotrastaurin 0.258

CABLES2 (UniProt Q9BTV7)
inactive: ibrutinib -0.154 | [1] -0.01 | [6] 0.378 | [8] -0.145 | vemurafenib 0.01 | [9] 0.114 | barasertib 0.177 | [10] 0.012 | volasertib -0.029 | sotrastaurin -0.162

C19orf12 (UniProt Q9NSK7)
inactive: [1] 0.076 | ralimetinib 0.011 | [2] -0.031 | [4] -0.096 | [5] 0.01 | [6] -0.004 | [7] 0.037 | [8] 0.033 | [9] -0.033 | [10] 0.02 | volasertib 0.107 | [11] 0.132 | saracatinib -0.002 | sotrastaurin -0.043

CAPNS1 (UniProt K7ES78)
inactive: [1] 0.028 | ralimetinib 0.061 | [2] -0.196 | [3] -0.101 | [5] 0.025 | [6] 0.148 | [7] -0.105 | [8] -0.075 | vemurafenib 0.143 | [9] -0.07 | volasertib 0.033 | [11] 0.076 | saracatinib 0.12 | sotrastaurin -0.071

C1orf109 (UniProt Q9NX04)
inactive: [1] 0.019 | ralimetinib 0.084 | [2] 0.081 | [3] 0.149 | [4] 0.028 | [5] -0.124 | [6] -0.072 | [7] 0.106 | [8] 0.018 | [9] 0 | [10] -0.137 | volasertib -0.106 | [11] 0.048 | saracatinib -0.161 | sotrastaurin 0.086

C3AR1 (UniProt Q16581)
inactive: ibrutinib 0.018 | [4] 0.001 | [6] -0.074 | barasertib -0.172 | [13] -0.286 | sotrastaurin -0.004
active: [12] -0.664

From the supplement of paper PMC10849652
